Data on 62 molecules can be found in PubChem BioAssay AID445 (National Center for Advancing Translational Sciences (NCATS), 2006).

Usually AC50 stands for the concentration giving half of the maximal activity seen.

The assay is described as follows: IkB Signaling. Conditions: ABC-DLBCL IkBa-CBG/CBR dual luciferase ratio (green luciferase fused to IkBa over red control in OCI-Ly3 lymphoma cells), 4 h. The procedure, abridged: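 Curves were fitted separately to fusion (green), unfused (red) and ratio luminescence, then classed by r2, magnitude and activity. Cells: OCI-Ly3, 4 h compound plus doxycycline at 37C; 10 uM MG-132 defined full response.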
Where [1] appears, read: measured here: control luc red channel unless noted.
[2] abbreviates: measured here: IkB-luc green channel.
The mark [3] stands for this setting: measured here: control luc red channel.

Some of the results follow. Shown are side measurements of this screen, not its main read-out; they come without a call. Compounds called inactive in the main read-out are mostly missing here. Potencies come from curve fits of mixed quality, noted in brackets.

As to `N#C/C(C(=O)N1CCOCC1)=C1\Nc2ccccc2S1`, under setting [1], the AC50 was 1.58 µM [falling, full curve].
In the case of `CCOc1ccccc1NS(=O)(=O)c1ccc(-c2cnc(C3CC3)o2)cc1`, the AC50 under setting [2] was 0.794 µM [rising, full curve, poor fit] and the AC50 under setting [3] is 1.26 µM [rising, partial curve].
`COC(=O)CSc1nsc(SCC(=O)OC)c1C#N`: the AC50 under setting [1] is 25.1 µM [falling, single point].
Turning to `Cc1c(Cl)cccc1NC(=O)c1ncn(-c2ccccc2)n1`, the AC50 under setting [1] was 1.58 µM [falling, full curve].
On to `CC(=O)Nc1ccc(NC(=O)c2oc3ccc4c(c3c2C)C(=O)CC(C)(C)O4)cc1`, for which, under setting [1], the concentration at half-maximal activity (AC50) is 25.1 µM [falling, partial curve].
In the case of `O=c1c(N2CCc3ccccc3C2)csc2ccccc12`, under setting [1], the AC50 was 3.98 µM [falling, partial curve].
`O=C(NCCc1ccccc1)c1ccc2c(c1)N(Cc1ccccc1F)C(=O)c1ccccc1S2=O` (centres undefined): under setting [1], the concentration at half-maximal activity (AC50) is 20 µM [rising, single point].
As for `CCn1cc(C(=O)Nc2cc3c(cc2NC(C)=O)OCCO3)c(=O)c2ccc(C)nc21`, under setting [1], the concentration at half-maximal activity (AC50) is 15.8 µM [rising, partial curve, poor fit].
On to `CCOc1ccc(-c2nc3c(c(SCC(=O)N4CCCCC4)n2)Cc2ccccc2O3)cc1`, for which the AC50 under setting [1] was 39.8 µM [falling, single point].
Consider `O=C(C1CCCN(S(=O)(=O)c2ccc(Br)s2)C1)N1CCN(c2ccccc2)CC1` (centres undefined), for which the AC50 under setting [1] is 20 µM [falling, partial curve].
Same read-out and setting: next, `CC(=O)N1CCCc2cc(S(=O)(=O)N3CCCC(C(=O)Nc4cc(Cl)ccc4C)C3)ccc21` (centres undefined): 0.158 µM [falling, full curve, poor fit]; `C=Cc1ccc(Cn2c(C(=O)O)c(CNCc3ccccc3)c3ccc(C)cc32)cc1`: 25.1 µM [falling, partial curve]; `CCCCN(C)C(=O)C1CCC(CNS(=O)(=O)c2ccc(Cl)cc2)CC1` (centres undefined): 20 µM [falling, partial curve, poor fit].
Consider `O=C(Cn1ncc2c1-c1ccccc1OC2)Nc1ccc(Cl)cn1`, for which the AC50 under setting [1] is 20 µM [falling, partial curve].
In the case of `Cc1ccc(CS(=O)(=O)c2ncc(Cl)c(C(=O)Nc3nc4ccc(F)cc4s3)n2)cc1`, the AC50 under setting [1] was 7.94 µM [falling, full curve].
On the same count and under the same terms, next, `COC(=O)[C@H]1[C@H]2C[C@H]3c4[nH]c5ccccc5c4CCN3C[C@@H]2CC[C@@H]1O`: 31.6 µM [rising, partial curve] [measured here: IkB-luc green channel]; `Cc1oc(-c2cccc(Cl)c2)nc1CN1CCCC(C(=O)NCc2ccco2)C1` (centres undefined): 20 µM [falling, single point]; `Cc1ccc(NS(=O)(=O)c2ccc3c(c2)CCCN3C(=O)C2CCC2)cc1Cl`: 31.6 µM [falling, partial curve].
On to `Nc1c(C(=O)Nc2ccc(C(=O)O)cc2)sc2nc3c(cc12)CCCC3`, for which the AC50 under setting [1] is 0.251 µM [falling, full curve].
On to `C=CCn1c(=O)c2ccccc2n2c(SC(C)C(=O)Nc3nc(-c4ccccc4)cs3)nnc12` (centres undefined), for which the concentration at half-maximal activity (AC50) under setting [1] was 7.94 µM [falling, partial curve].
Turning to `Cc1nc2nncn2c(NCc2ccc(F)cc2)c1C`, the AC50 under setting [1] was 10 µM [falling, partial curve].
Same read-out and setting: next, `O=C(NCc1ccc2c(c1)CCN2C(=O)c1ccc(Cl)cc1)c1cccc(F)c1`: 25.1 µM [falling, single point].
With `O=C(Nc1nnc(S(=O)(=O)Nc2ccccc2)s1)c1ccccc1Cl`, the AC50 under setting [1] was 15.8 µM [falling, single point].
As for `Cc1cccc(CNC(=O)CCn2ccc3cc(S(=O)(=O)N4CCCC4)ccc32)c1`, under setting [1], the AC50 was 39.8 µM [falling, single point].
`COc1ccc(OC)c(CCNC(=O)c2cnn(-c3ccccc3)c2C2CCN(C(=O)OC(C)(C)C)CC2)c1`: the AC50 under setting [1] is 25.1 µM [falling, partial curve].
Take `O=c1c(N2CCN(c3cccc(C(F)(F)F)c3)CC2)csc2ccc(Cl)cc12`: under setting [1], the AC50 is 10 µM [falling, partial curve].
Consider `COC(=O)c1cc2oc3ccccc3c2n1Cc1cc(C)ccc1C`, for which the AC50 under setting [1] was 0.00501 µM [rising, full curve, poor fit].
Still for that read-out and setting: the result for `O=C1CC(c2ccccc2)Cc2[nH]c(=O)c(-c3nc(-c4ccc(Cl)cc4)cs3)cc21` (centres undefined) reads 15.8 µM [falling, partial curve].
Take `CCN1CCN(C(c2cccc(F)c2)c2c(O)cc(C)n(Cc3ccco3)c2=O)CC1` (centres undefined): the AC50 under setting [1] is 25.1 µM [falling, partial curve].
On the same count and under the same terms, the result for `CC(=O)c1cccc(NC(c2ccc(F)cc2)c2nnc(-c3ccccc3)o2)c1` (centres undefined) reads 10 µM [falling, partial curve].
As for `c1ccc(-c2nnc(N3CCN(c4ccccn4)CC3)c3ccccc23)cc1`, the AC50 under setting [1] was 10 µM [falling, partial curve].
Take `Cc1ccc(-n2nnnc2CNC(=O)C(C)C)cc1C`: the half-maximal activity concentration (AC50) under setting [1] is 0.501 µM [falling, full curve, poor fit].
For the molecule `COC(=O)c1c(-c2ccc(Cl)cc2)noc1N1CCN(c2cccc(C(F)(F)F)c2)CC1`, under setting [1], the AC50 was 2.51 µM [falling, full curve].
On to `O=C(Nc1ccccc1C(=O)OCc1cc(=O)n2c3c(sc2n1)CCCC3)c1cccc(Cl)c1`, for which the AC50 under setting [1] is 20 µM [falling, partial curve].
Turning to `Cc1cc(C)nc(NS(=O)(=O)c2ccc(NC(=O)COc3ccc(C(C)(C)C)cc3)cc2)n1`, under setting [1], the AC50 is 31.6 µM [falling, partial curve].
As to `CCOC(=O)CC(NC(=O)N1CCC(CN2CCC(C)CC2)CC1)c1ccccc1` (centres undefined), the AC50 under setting [1] is 0.398 µM [falling, full curve, poor fit].
In the case of `Cc1cccc(C)c1Nc1c(-c2ccsc2)nc2ccc(Cl)cn12`, the AC50 under setting [1] is 10 µM [falling, partial curve].
Turning to `CCOC(=O)c1c(-c2ccccc2)csc1NC(=O)c1cc(-c2ccc(Cl)cc2)on1`, the AC50 under setting [1] was 15.8 µM [falling, partial curve].
On to `CC1=C(C(=O)Nc2ccc(C)cc2C)C(c2ccccc2)n2ncc(C(=O)Nc3ccccc3)c2N1` (centres undefined), for which the AC50 under setting [1] is 10 µM [falling, partial curve].
With `COC(=O)c1ccc2c(=O)n(CCCCCC(=O)N3CCN(c4ccc(OC)cc4)CC3)c(=O)[nH]c2c1`, the AC50 under setting [1] is 7.94 µM [falling, full curve].
With `Cc1ccc(NC(=O)C2CCCN(S(=O)(=O)c3cccc4cccnc34)C2)c(C)c1` (centres undefined), the AC50 under setting [1] was 31.6 µM [falling, single point].
With `CCOC(=O)CSc1nc2ccc(NC(=O)c3ccccc3F)cc2s1`, the AC50 under setting [1] was 2.51 µM [falling, partial curve].
As for `Cc1onc(-c2ccccc2Cl)c1C(=O)Nc1sc2c(c1C#N)CCC2`, the half-maximal activity concentration (AC50) under setting [1] was 39.8 µM [falling, single point].
Regarding `CCOc1ccc(CNC(=O)c2ccc(Sc3ccc(Cl)cc3)c(NC(C)=O)c2)cc1OC`, the AC50 under setting [1] is 31.6 µM [falling, single point].
In the case of `CC(=O)c1ccc(N2CCN(C(=O)COc3ccc(F)cc3)CC2)c(F)c1`, the AC50 under setting [1] is 7.94 µM [falling, partial curve].
On the same count and under the same terms, next, `CCc1ccc(Nc2nc(N)nc(CSc3nc4ccccc4s3)n2)cc1`: 39.8 µM [falling, single point].
Consider `O=C(NCc1cccc(F)c1)c1cccc(NC(=O)c2nsc3ccccc23)c1`, for which, under setting [1], the AC50 is 6.31 µM [falling, partial curve].
As to `COc1ccc(OC)c(C2c3c(oc4ccc(C)cc4c3=O)C(=O)N2CCCN(C)C)c1` (centres undefined), under setting [1], the AC50 is 0.631 µM [falling, partial curve].
The same measure, in the same setting: next, `CCc1ccccc1NS(=O)(=O)c1ccc2c(c1)OCC(C(=O)N1CCCC1)O2` (centres undefined): 15.8 µM [falling, partial curve].
On to `Nc1nc(Cl)nc2c1ncn2[C@@H]1O[C@@H](CO)[C@@H](O)[C@H]1O`, for which the AC50 runs as follows: under setting [2], 7.94 µM [rising, partial curve, poor fit]; under setting [3], 0.158 µM [rising, full curve].
With `Cc1cccc(-n2ncc3c(NC4CCCC4)ncnc32)c1`, under setting [1], the concentration at half-maximal activity (AC50) was 20 µM [falling, partial curve].
Turning to `Cc1ccc(Cl)cc1NC(=O)Cn1c(=O)c2ccccc2n2nncc12`, the half-maximal activity concentration (AC50) under setting [1] is 39.8 µM [falling, single point].
As for `Cc1cccc2cc(COC(=O)COc3ccccc3)c(=O)[nH]c12`, under setting [1], the AC50 was 0.501 µM [falling, full curve].
Take `COCCNC(=O)c1cc(-c2ccccc2OC)on1`: under setting [1], the concentration at half-maximal activity (AC50) was 0.794 µM [falling, full curve].
As for `C=CCn1c(COc2ccc(Cl)cc2)nnc1SCC(=O)N1CC(=O)Nc2ccccc21`, the AC50 under setting [1] is 25.1 µM [falling, single point].
For `CCOc1ccccc1NC(=O)c1nnn(CC(=O)Nc2ccc(OC)c(OC)c2)c1N`, the AC50 under setting [1] is 15.8 µM [falling, partial curve].
For the molecule `Cc1cc(=O)n2nc(N3CCC(C(=O)Nc4ccc(C)c(Cl)c4)CC3)sc2n1`, the AC50 under setting [1] was 12.6 µM [falling, partial curve].
For the molecule `CCSc1ncc(Cl)c(C(=O)Nc2nc3ccc(OC)cc3s2)n1`, the AC50 under setting [1] was 0.01 µM [falling, full curve, poor fit].
Same read-out and setting: next, `CCc1nonc1NC(=O)c1oc2ccccc2c1C`: 1 µM [rising, full curve]; `CCOc1cc(C2c3c(-c4ccc(Br)cc4)n[nH]c3C(=O)N2c2ccc(Cl)cc2)ccc1O` (centres undefined): 3.98 µM [falling, full curve]; `COC(=O)c1ccc(Cn2c(=O)cc(C(F)(F)F)c3c(C)nn(C)c32)cc1`: 0.0631 µM [rising, full curve, poor fit].
For the molecule `CCCCCc1nc2c(=O)n(C)c3ccccc3c2o1`, the AC50 under setting [1] was 15.8 µM [falling, partial curve].
